Experiment: Extraction, DNPH derivatization and HPLC-MS of atherosclerotic plaque extracts
Parameters: species or system human

In the case of CC(C)CCC[C@@H](C)[C@H]1CCC2C(C/C=N/Nc3ccc([N+](=O)[O-])cc3[N+](=O)[O-])C([C@@]3(C)CC[C@H](O)CC3=O)CC[C@@]21C (stereo partly drawn) [4b, 2,4-Dinitrophenylhydrazone of 3β-hydroxy-5-oxo-5,6-secocholestan-6-al], the “mean amount of 4b in plaque, no PMA” value (n=14) is reported as 18.7 ± 5.7 pmol/mg and the “mean amount of 4b in plaque, PMA added” value (n=14, p<0.05) is reported as 42.5 ± 13.6 pmol/mg.
In the case of CC(C)CCC[C@@H](C)[C@H]1CCC2C3C(CC[C@@]21C)[C@@]1(C)CCC=C[C@@]1(O)[C@@H]3/C=N/Nc1ccc([N+](=O)[O-])cc1[N+](=O)[O-] (stereo partly drawn) [7b, 2,4-Dinitrophenylhydrazone of 5β-hydroxy-B-norcholest-3-ene-6β-carboxaldehyde], the “7b in plaque extracts (trace amounts)” value (several plaque extracts) is reported as less than 5 pmol/mg.
